Experimental data as given in US12617783B2, “Heterocyclic GLP-1R agonists” (BIOMEA FUSION, INC., priority 2024, dated 2026).
At least one read-out could not be matched to a standard name with certainty. Some compounds share one wording; it may come from a single statement.

Assay: Pharmacokinetic analysis in male SD rats
Type: in vivo
Conditions: same doses (iv 1 mg/kg and po 5 mg/kg)
Method: The rats have free access to food and water. Blood samples were collected pre-dose and 0.083, 0.25, 0.5, 1, 2, 4, 8, 24 hours post dose for i.v. administration group. Blood samples were also collected pre-dose and 0.25, 0.5, 1, 2, 4, 8, and 24 hours after administration in orally dosing group.

Row | SMILES | oral bioavailability compared with Orforglipron
1 | Cc1cc(-n2nc3c(c2-n2ccn(-c4ccc5c(cnn5C)c4F)c2=O)[C@@H]2COC[C@H](C3)N2C(=O)c2cc3cc([C@H]4CCOC(C)(C)C4)ccc3n2[C@@]2(c3noc(=O)[nH]3)C[C@@H]2C)cc(C)c1F [Compound 121, 3-((1S,2S)-1-(5-((S)-2,2-dimethyltetrahydro-2H-pyran-4-yl)-2-((4R,8S)-3-(3-(4-fluoro-1-methyl-1H-indazol-5-yl)-2-oxo-2,3-dihydro-1H-imidazol-1-yl)-2-(4-fluoro-3,5-dimethylphenyl)-2,4,5,7,8,9-hexahydro-4,8-epiminooxocino [5,4-c]pyrazole-10-carbonyl)-1H-indol-1-yl)-2-methylcyclopropyl)-1,2,4-oxadiazol-5 (4H)-one] | better oral bioavailability
2 | Cc1cc(-n2nc3c(c2-n2ccn(-c4ccc5c(cnn5C)c4F)c2=O)[C@@H]2CC[C@H](C3)N2C(=O)c2cc3cc([C@H]4CCOC5(CC5)C4)ccc3n2[C@@]2(c3noc(=O)[nH]3)C[C@@H]2C)cc(C)c1F [Compound 214, 3-((1S,2S)-1-(2-((4S,7R)-3-(3-(4-fluoro-1-methyl-1H-indazol-5-yl)-2-oxo-2,3-dihydro-1H-imidazol-1-yl)-2-(4-fluoro-3,5-dimethylphenyl)-2,4,5,6,7,8-hexahydro-4,7-epiminocyclohepta [c]pyrazole-9-carbonyl)-5-((S)-4-oxaspiro[2.5]octan-7-yl)-1H-indol-1-yl)-2-methylcyclopropyl)-1,2,4-oxadiazol-5 (4H)-one] | better oral bioavailability
3 | Cc1cc(-n2nc3c(c2-n2ccn(-c4ccc5c(cnn5C)c4F)c2=O)[C@@H]2CC[C@H](C3)N2C(=O)c2cc3cc([C@H]4CCOC(C)(C)C4)ccc3n2[C@@]2(c3noc(=O)[nH]3)C[C@@H]2C)cc(C)c1F [Compound 36, 3-((1S,2S)-1-(5-((S)-2,2-dimethyltetrahydro-2H-pyran-4-yl)-2-((4S,7R)-3-(3-(4-fluoro-1-methyl-1H-indazol-5-yl)-2-oxo-2,3-dihydro-1H-imidazol-1-yl)-2-(4-fluoro-3,5-dimethylphenyl)-2,4,5,6,7,8-hexahydro-4,7-epiminocyclohepta [c]pyrazole-9-carbonyl)-1H-indol-1-yl)-2-methylcyclopropyl)-1,2,4-oxadiazol-5(4H)-one] | better oral bioavailability
